Laboratory results from patent US20250090540A1, “PI3K-ALPHA INHIBITORS AND METHODS OF USE THEREOF” (Relay Therapeutics, Inc., priority 2021, published 2025).

The chains behind the UniProt entries cited, without tags or fusion partners.
UniProt P42336, whole entry H1047R: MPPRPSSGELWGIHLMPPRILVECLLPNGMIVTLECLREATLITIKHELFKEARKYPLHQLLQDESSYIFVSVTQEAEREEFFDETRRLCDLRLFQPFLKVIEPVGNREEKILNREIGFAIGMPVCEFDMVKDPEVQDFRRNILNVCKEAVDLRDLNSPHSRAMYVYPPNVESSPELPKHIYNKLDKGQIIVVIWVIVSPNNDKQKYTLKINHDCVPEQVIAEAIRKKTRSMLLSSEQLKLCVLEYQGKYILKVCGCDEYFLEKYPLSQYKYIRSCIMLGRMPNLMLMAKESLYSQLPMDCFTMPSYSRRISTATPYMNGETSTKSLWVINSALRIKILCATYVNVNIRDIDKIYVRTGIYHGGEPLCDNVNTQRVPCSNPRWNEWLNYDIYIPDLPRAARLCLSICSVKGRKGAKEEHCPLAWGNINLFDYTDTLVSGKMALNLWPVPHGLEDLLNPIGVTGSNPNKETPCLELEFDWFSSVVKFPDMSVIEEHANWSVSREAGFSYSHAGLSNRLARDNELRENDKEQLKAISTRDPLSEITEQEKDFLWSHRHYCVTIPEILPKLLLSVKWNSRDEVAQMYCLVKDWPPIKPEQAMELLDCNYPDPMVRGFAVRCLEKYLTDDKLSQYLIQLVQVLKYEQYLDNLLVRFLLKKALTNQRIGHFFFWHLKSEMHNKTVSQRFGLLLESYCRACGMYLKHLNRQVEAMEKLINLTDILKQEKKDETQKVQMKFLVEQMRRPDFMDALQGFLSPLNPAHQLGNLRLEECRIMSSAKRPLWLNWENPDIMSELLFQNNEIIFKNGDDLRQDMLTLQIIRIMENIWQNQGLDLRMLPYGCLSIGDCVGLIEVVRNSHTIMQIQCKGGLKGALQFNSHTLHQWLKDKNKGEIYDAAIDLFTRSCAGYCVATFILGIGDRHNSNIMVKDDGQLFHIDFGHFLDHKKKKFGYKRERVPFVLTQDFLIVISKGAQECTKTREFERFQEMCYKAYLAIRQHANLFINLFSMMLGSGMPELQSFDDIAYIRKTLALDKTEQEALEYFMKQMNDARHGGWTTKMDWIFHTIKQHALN
UniProt P27986, whole entry partner: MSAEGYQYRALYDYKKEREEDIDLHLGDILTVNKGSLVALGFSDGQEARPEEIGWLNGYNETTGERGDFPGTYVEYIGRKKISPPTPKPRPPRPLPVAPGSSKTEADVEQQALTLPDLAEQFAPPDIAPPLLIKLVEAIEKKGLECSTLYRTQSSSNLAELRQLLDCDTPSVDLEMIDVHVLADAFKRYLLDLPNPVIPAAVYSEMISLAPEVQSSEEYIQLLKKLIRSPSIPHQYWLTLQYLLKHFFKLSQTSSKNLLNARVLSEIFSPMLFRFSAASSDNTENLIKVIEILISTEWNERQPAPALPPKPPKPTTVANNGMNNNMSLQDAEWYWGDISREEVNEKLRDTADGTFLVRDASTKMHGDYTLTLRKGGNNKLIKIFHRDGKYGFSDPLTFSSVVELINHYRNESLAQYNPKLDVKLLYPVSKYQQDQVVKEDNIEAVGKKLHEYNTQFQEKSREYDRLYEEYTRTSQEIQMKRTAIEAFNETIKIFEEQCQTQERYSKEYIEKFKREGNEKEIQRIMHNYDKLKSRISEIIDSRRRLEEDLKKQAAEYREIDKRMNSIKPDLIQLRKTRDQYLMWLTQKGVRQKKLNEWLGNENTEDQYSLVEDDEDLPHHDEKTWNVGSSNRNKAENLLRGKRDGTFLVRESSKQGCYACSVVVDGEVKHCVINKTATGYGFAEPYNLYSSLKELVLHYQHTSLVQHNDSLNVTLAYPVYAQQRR

Experiments:
[1] = molecular target: H1047R PIK3CA enzyme (Homo sapiens, UniProt P42336, H1047R); experiment: ADP-Glo Biochemical PIK3CA Kinase Assay; details: read-out: ADP-Glo IC50
[2] = test system: PIK3CA-mediated AKT phosphorylation in MCF10A cells overexpressing hotspot PIK3CA mutations (including H1047R, E542K, and E545K mutations)

Compound	IC50 [1] [nM]	IC50 [2] [nM]
Cc1ccccc1Nc1cccnc1NC(=O)c1csc2ccccc12 [I-635]	1000 to 10000	–
CNC(=O)c1cnc(Nc2cccc3ccn(C)c23)c(NC(=O)c2csc3ccccc23)c1 [I-680]	1000 to 10000	10000 to 36000
CNC(=O)c1cnc(Nc2ccccc2C)c(NC(=O)c2ccc(C#N)c(C(F)(F)F)c2)c1 [I-710]	1000 to 10000	–
COC(=O)CCS(=O)(=O)c1cnc(Nc2ccccc2C)c(NC(=O)c2cc(F)cc(C(F)(F)F)c2)c1 [I-728]	1000 to 10000	–
CNC(=O)c1cnc(Nc2ccccc2C)c(NC(=O)c2ccc(F)c(F)c2)c1 [I-722]	1000 to 10000	–
CNC(=O)c1cnc(Nc2ccccc2C)c(NC(=O)c2cc(F)c(C(F)(F)F)c(F)c2)c1 [I-717]	1000 to 10000	–
Cc1ccccc1Nc1ncc(C(=O)NCc2nnc3ccccn23)cc1NC(=O)c1cc(F)cc(C(F)(F)F)c1 [I-759]	1000 to 10000	–
O=C(NC1CC(F)(F)C1)c1cnc(Nc2ccccc2Cl)c(NC(=O)c2csc3ccccc23)c1 [I-641]	1000 to 10000	–
CNC(=O)c1cnc(Nc2ccccc2C)c(NC(=O)c2ccc(C(F)(F)F)c(F)c2)c1	1000 to 10000	–
Cc1ccccc1Nc1ncc(C(=O)NCC2(C#N)CC2)cc1NC(=O)c1cc(F)cc(C(F)(F)F)c1 [I-750]	500 to 1000	–
CNC(=O)c1cnc(Nc2ccccc2C)c(NC(=O)c2cc(F)c(Cl)c(F)c2)c1	100 to 500	1000 to 5000
Cc1cc(CNC(=O)c2cnc(Nc3ccccc3C)c(NC(=O)c3cc(F)cc(C(F)(F)F)c3)c2)no1	100 to 500	1000 to 5000
Cc1ccccc1Nc1ncc(C(=O)NCc2ncccn2)cc1NC(=O)c1cc(F)cc(C(F)(F)F)c1 [I-719]	100 to 500	–
Cc1ccccc1Nc1ncc(C(=O)NCc2ccc(Cl)cc2)cc1NC(=O)c1cc(F)cc(C(F)(F)F)c1 [I-702]	100 to 500	1000 to 5000
Cc1ccccc1Nc1ncc(C(=O)NCc2cccnc2)cc1NC(=O)c1cc(F)cc(C(F)(F)F)c1 [I-700]	100 to 500	1000 to 5000
CNC(=O)c1cnc(Nc2ccccc2C)c(NC(=O)c2noc3ccccc23)c1 [I-671]	1000 to 10000	–
Cc1ccccc1Nc1ncc(NCc2cncnc2)cc1NC(=O)c1cc(F)cc(C(F)(F)F)c1 [I-638]	1000 to 10000	–
CNC(=O)c1cnc(Nc2cccc3c2CCC3)c(NC(=O)c2cc(F)cc(C(F)(F)F)c2)c1	100 to 500	5000 to 10000
COc1cncc(CNC(=O)c2cnc(Nc3ccccc3C)c(NC(=O)c3cc(F)cc(C(F)(F)F)c3)c2)c1 [I-707]	–	1000 to 5000
O=C(NC1CS(=O)(=O)C1)c1cnc(N2CCOCC2)c(NC(=O)c2csc3ccccc23)c1	1000 to 10000	–
CSc1cnc(Nc2ccccc2C)c(NC(=O)c2cc(F)cc(C(F)(F)F)c2)c1	1000 to 10000	–
Cc1ccccc1Nc1ncc(NCc2cncnc2)cc1NC(=O)c1cc(F)cc(C(F)(F)F)c1 [I-639]	< 100	5000 to 10000
CNC(=O)c1cnc(Nc2ccccc2C)c(NC(=O)c2cc(Cl)nc(C(F)(F)F)c2)c1 [I-762]	500 to 1000	–
CNC(=O)c1cnc(Nc2ccccc2C)c(NC(=O)c2cc(F)c(OC)c(C(F)(F)F)c2)c1	1000 to 10000	10000 to 36000

The structures given here were assigned with low confidence; some may be wrong.
